Among all 340,000 compounds or so, about 6,200 (1.8%) were called active. Inconclusive results, whose numbers are uncertain, are shown with a selection of clear calls. Calls come from the whole dose curve; as a rule, active = well fitted activation curve with a large enough effect; inconclusive = small, poorly fitted or top-dose-only effect; inactive = no such curve, though single readings can be large or run the other way. Where the call is inconclusive, the potency comes from a doubtful curve fit.
test: A quantitative high throughput screen for small molecules that induce DNA re-replication in SW480 colon adenocarcinoma cells.; note: nearly all actives have a fitted effect of over 55% in size; for re-replication activation: % of control where 0% means no effect; settings: Hoechst DNA content imaging, 48 h; re-replication activation: at 46.1 µM (top of the series) unless noted
In short: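 DNA re-replication was detected as more nuclei of elevated Hoechst intensity after 48 hr exposure to compound (23 nL pinned per well of 250 cells).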
Potency is the fitted concentration of half-maximal effect.

SMILES	Potency	re-replication activation
O=C(Nc1ccc(C(=O)O)cc1)Nc1cccc([N+](=O)[O-])c1	inactive	
CCN(c1ccccc1)S(=O)(=O)c1ccc(C(=O)Nc2nnc(COC)o2)cc1	inconclusive: 29.1 µM [activator, single point]	
COc1ccc(OC)c(/C=N/c2c(-c3ccc(O)c(OC)c3)nc3ccccn23)c1	inconclusive: 5.17 µM [activator, single point]	
O=C(c1ccc2nc[nH]c2c1)N1CCN(c2cccc(C(F)(F)F)c2)CC1	inconclusive: 25.9 µM [activator, single point]	
O=S(=O)(CCN1CCCCC1)CCS(=O)(=O)CCN1CCCCC1	inconclusive: 29.1 µM [activator, partial curve, poor fit]	
COc1ccc(-n2cnc(=S)[nH]c2=S)cc1	inconclusive: 29.1 µM [activator, single point]	
CCOc1ccc(N2C(=O)CC(Sc3nc(CC(C)C)ccc3C#N)C2=O)cc1 (configuration not stated)	active: 5.8 µM	
CCOc1ccc(N2C(=O)CC(N)C2=O)cc1 (configuration not stated)	inconclusive: 29.1 µM [activator, single point]	
Cc1onc(-c2ccccc2Cl)c1C(=O)N1CCN(C/C=C/c2ccccc2)CC1	inconclusive: 0.13 µM [activator, full curve, poor fit]	
CN1C(=O)C(CC(=O)Nc2ccc(F)cc2)N(CCCc2ccccc2)C1=S (configuration not stated)	inconclusive: 18.4 µM [activator, single point]	
Cc1ccc(COc2ccc(/C=N/NC(=O)c3nnn(-c4nonc4N)c3COc3ccc(F)cc3)cc2)cc1	inactive	
COC(=O)Nc1ccc(S(=O)(=O)N2CCC(C(=O)N3CCC(C)CC3)CC2)cc1	inconclusive: 23.1 µM [activator, single point]	
Cc1cc(-c2csc(N)n2)c(C)n1Cc1ccco1	inconclusive: 29.1 µM [activator, partial curve, poor fit]	
CCc1nnc(NC(=O)CSc2nnc(Cc3ccccc3)n2Cc2ccccc2)s1	inactive	
CC(OC(=O)c1c(F)cccc1F)C(=O)NCCC1=CCCCC1 (configuration not stated)	inactive	
Cc1ccc(OCC(=O)N2N=C(C(F)(F)F)CC2(O)C(C)(C)C)cc1C (configuration not stated)	inconclusive: 20.6 µM [activator, partial curve, poor fit]	
COc1ccc(/C=N/Nc2ncnc3scc(-c4ccccc4)c23)cc1OC	inconclusive: 29.1 µM [activator, single point]	
CCOC(=O)c1cc(CC)sc1NC(=O)COC(=O)c1ccccn1	inconclusive: 5.8 µM [activator, partial curve, poor fit]	
COc1ccc(C)cc1NS(=O)(=O)c1ccc2c(c1)n(C)c(=O)n2C	inactive	
N#Cc1c(N)c2ccccn2c1C(=O)c1ccc(Br)cc1	inconclusive: 23.1 µM [activator, partial curve, poor fit]	
O=C(/C=C/NNC(=O)c1ccccc1O)c1ccccc1	inconclusive: 16.4 µM [activator, single point]	
O=C(CC1Sc2ccccc2NC1=O)NNc1ccc(Cl)cc1Cl (configuration not stated)	inactive	
CNC(=O)c1nnsc1S(=O)(=O)c1ccc(Cl)cc1	active: 1.03 µM	
CCC(CO)Oc1cc(NC(=O)c2cccc(F)c2)c2ncn(C(C)C)c2c1 (configuration not stated)	inactive	

SMILES	Potency	re-replication activation
O=C(CC1SC(=Nc2ccccc2)N(Cc2ccccn2)C1=O)Nc1ccc(Br)cc1 (configuration not stated)	active: 16.4 µM	
CCCN(CCC)CCCOC(=O)c1ccc(Cl)cc1Cl	inactive	
CCN(CC)CC1CN(N=Cc2ccc([N+](=O)[O-])o2)C(=O)O1 (configuration not stated)	inconclusive: 29.1 µM [activator, single point]	
CN(C)C1CCN(Cc2cc(COCc3ccccc3)c3cccnc3c2O)C1 (configuration not stated)	inconclusive: 6.51 µM [activator, single point]	
Cc1ccc(S(=O)(=O)N(C)c2ccc(C(=O)Nc3ccccc3C(=O)N3CCOCC3)cc2)cc1	inconclusive: 29.1 µM [activator, single point]	
Cc1cccc(OCC(O)CN2CCN(CCN3C(=O)c4cccc5cccc(c45)C3=O)CC2)c1C (configuration not stated)	inconclusive: 8.2 µM [activator, single point]	
CCOc1cc(NC(=S)NCC2CCCO2)c(OCC)cc1NC(=O)CC(C)C (configuration not stated)	inactive	
Cc1ccc(/C=N/Nc2nc(C)cc(C)n2)cc1	inactive	
CCOC(=O)/C=C/C(=O)Nc1cc(S(=O)(=O)Nc2ccc(OC)cc2)ccc1N1CCOCC1	active: 16.4 µM	
CCOC(=O)c1ccc(NC(=O)c2c(N)n(C)c(=O)n(C)c2=O)cc1	inconclusive: 0.184 µM [activator, full curve, poor fit]	
Cc1ccc2cc3cc(C(=O)N(CC(=O)NC4CCCC4)c4cccc(C)c4C)sc3nc2c1	inactive	
CCOc1cc(C(=S)N2CCCC2)ccc1OC(=O)Cc1ccc(F)cc1	inconclusive: 18.4 µM [activator, single point]	
CCOC(=O)/C=c1\s/c(=C\c2c(OC)ccc3ccccc23)c(=O)n1CC(=O)NCC1CCCO1 (configuration not stated)	active: 5.8 µM	
Cc1occc1-c1nnc(SCC(=O)NC2CC2)n1C	inconclusive: 29.1 µM [activator, single point]	
COc1ccc(C(=O)COC(=O)CCN2C(=O)C3C4CCC(C4)C3C2=O)cc1 (configuration not stated)	inconclusive: 0.146 µM [activator, full curve, poor fit]	
CCN(CC)c1ccc(NC(=O)CNCc2ccccc2Cl)c(C)c1	inconclusive: 29.1 µM [activator, single point]	
CC(C)CNC(=O)CC(=O)N/N=C/c1cccs1	inconclusive: 0.13 µM [activator, full curve, poor fit]	
Cc1c(C(=O)Nc2ccncc2)sc2nc(-c3ccc(F)cc3)cn12	inactive	
CCCCN1C(=O)C(=O)N(CC(=O)NC2CCCc3ccccc32)C1=O (configuration not stated)	inconclusive: 14.6 µM [activator, partial curve]	
Cc1c(C(=O)Nc2ccc(S(=O)(=O)Nc3ncccn3)cc2)oc2ccc(F)cc12	inactive	
Cc1ccc(S(=O)(=O)c2nc(S(C)(=O)=O)sc2N2CCC(C(N)=O)CC2)cc1	inactive	
Cc1ccc(-c2cc(C(F)(F)F)n3ncc(C(=O)N4CCN(C)CC4)c3n2)cc1	inactive	
CC(C)Cc1oc(C(=O)O)cc1CN1CCOCC1	inconclusive: 29.1 µM [activator, single point]	
Cc1onc(-c2ccccc2Cl)c1C(=O)OCN1C(=O)c2ccccc2C1=O	inactive	

SMILES	Potency	re-replication activation
C#CC(=O)N(c1ccc(OC)c(OC)c1)C(C(=O)NC1CCCC1)c1cccs1 (configuration not stated)	inconclusive: 0.291 µM [activator, full curve, poor fit]	
Cc1ccc(NC(=O)C2CCCO2)c(Br)c1 (configuration not stated)	inconclusive: 0.731 µM [activator, partial curve, poor fit]	
Cc1ccc(C(=O)NCCCC(=O)O)o1	inactive	
Cc1nn(C(=O)CCCC(=O)NCc2ccccc2)c2ccccc12		inconclusive: 107% [activator]
COc1ccc(N2C(=O)CC(Sc3n[nH]c(-c4ccccc4)n3)C2=O)cc1 (configuration not stated)	inactive	
Cc1ccc(S(=O)(=O)N2C(=O)c3cccc4cccc2c34)cc1	inconclusive: 29.1 µM [activator, single point]	
COc1ccc(NC(=O)c2cccc(Oc3ccccc3)c2)cn1	inconclusive: 29.1 µM [activator, single point]	
CCc1c(C)[nH]c2ccccc2c1=O	inactive	
C/C(=N\NC(=O)CC1N=C(Cc2ccccc2)NNC1=O)c1ccc(C)cc1 (configuration not stated)	inconclusive: 29.1 µM [activator, single point]	
CC(CCc1ccccc1)NC(=O)COC(=O)c1ccc(NC(N)=O)cc1 (configuration not stated)	inactive	
CC(=O)N(Cc1ccc(F)cc1)C1=C(NCCc2ccccc2)C(=O)c2ccccc2C1=O	active: 6.31 µM	
N=c1c2c3c(sc2ncn1N)CCCC3	inconclusive: 29.1 µM [activator, single point]	
CCCN1C(=O)C(Cc2nc3ccccc3c(=O)n2-c2ccccc2)c2cc(C)ccc21 (configuration not stated)	inconclusive: 0.0046 µM [activator, full curve, poor fit]	
c1ccc(CSc2nnc(-c3ccccc3)c(-c3ccccc3)n2)cc1	inconclusive: 1.64 µM [activator, full curve, poor fit]	
O=C1c2cc(F)ccc2-n2c1nc1ccccc1c2=O	inconclusive: 9.2 µM [activator, partial curve]	
O=C(OCc1ccc(Br)cc1)c1ccncc1	inconclusive: 0.259 µM [activator, full curve]	
C=CCOc1ccc2cccc(/C=N/NC(=O)c3cc4cc([N+](=O)[O-])ccc4s3)c2c1	active: 20.6 µM	
C#CCSc1nnc(-c2sc3ccccc3c2Cl)o1	inconclusive: 18.4 µM [activator, single point]	
CCNS(=O)(=O)c1cccc(C(=O)c2c(C)cc3ccccn23)c1	inactive	
COc1cccc(CN2CCN(Cc3cccc(Oc4ccccc4)c3)CC2)c1OC	active: 23.1 µM	
COc1cc(OC)c(OC)cc1/C=C1\CCC(C2CCCC2)C1=O (configuration not stated)	inconclusive: 29.1 µM [activator, partial curve, poor fit]	
Nc1cc(=O)[nH]c(SCc2ccc(Cl)cc2Cl)n1	inconclusive: 3.66 µM [activator, partial curve, poor fit]	
c1ccc(-c2cn3nc(-c4ccccc4)c(-c4ccccc4)nc3n2)cc1	active: 9.2 µM	
Nc1ccc2oc(-c3ccc4nc[nH]c4c3)nc2c1	inconclusive: 23.1 µM [activator, partial curve, poor fit]	

3 structures already listed, arranged by SMILES length, falling:
SMILES	Potency	re-replication activation
COC(=O)Nc1ccc(S(=O)(=O)N2CCC(C(=O)N3CCC(C)CC3)CC2)cc1	inconclusive: 23.1 µM [activator, single point]	
CCc1nnc(NC(=O)CSc2nnc(Cc3ccccc3)n2Cc2ccccc2)s1	inactive	
Nc1ccc2oc(-c3ccc4nc[nH]c4c3)nc2c1	inconclusive: 23.1 µM [activator, partial curve, poor fit]	

Laid out differently: results already given.
SMILES,Potency,re-replication activation
Cc1ccc(S(=O)(=O)N2C(=O)c3cccc4cccc2c34)cc1,"inconclusive: 29.1 µM [activator, single point]",
COc1ccc(NC(=O)c2cccc(Oc3ccccc3)c2)cn1,"inconclusive: 29.1 µM [activator, single point]",

From PubChem BioAssay AID624297 (National Center for Advancing Translational Sciences (NCATS), 2012)
